Measured values reported in patent US20130071397A1.
No constants are given. Whether binding was seen depends on the method and setting. Some entries that bind do so weakly or less than the wild type.

Assays:
[1] = target: PDGFRβ E390A mutant (flag-tagged) (human) (UniProt P09619); assay: DSS crosslinking of PDGF-stimulated MEFs, IP and anti-flag immunoblot
[2] = target: PDGFRβ E390A mutant (flag-tagged) (human) (UniProt P09619); assay: covalent crosslinking of PDGF-stimulated MEFs
[3] = target: PDGFRβ E390A mutant (flag-tagged) (human) (UniProt P09619); assay: DSS crosslinking of PDGF-treated MEFs, immunoprecipitation with anti-PDGFR, immunoblot with anti-flag; receptor homodimer formed in the presence of PDGF BB
[4] = target: PDGFRβ E390A mutant (flag-tagged) (human) (UniProt P09619); assay: DSS crosslinking of PDGF-treated MEFs, Ip: PDGFR, ib: Flag; receptor homodimer formed in the presence of PDGF BB
[5] = target: wild type PDGFRβ with C-terminal flag-tag expressed in PDGFR-deficient MEFs (human) (UniProt P09619); assay: DSS crosslinking of PDGF-stimulated MEFs, IP and anti-flag immunoblot
[6] = target: wild type PDGFRβ with C-terminal flag-tag expressed in PDGFR-deficient MEFs (human) (UniProt P09619); assay: DSS crosslinking of PDGF-treated MEFs, immunoprecipitation with anti-PDGFR, immunoblot with anti-flag; receptor homodimer formed in the presence of PDGF BB
[7] = target: wild type PDGFRβ with C-terminal flag-tag expressed in PDGFR-deficient MEFs (human) (UniProt P09619); assay: DSS crosslinking of PDGF-treated MEFs, Ip: PDGFR, ib: Flag; receptor homodimer formed in the presence of PDGF BB

Measured: binding

PDGFRβ E390A mutant (flag-tagged) (from UniProt P09619 33-1106) (receptor)
binds: [1] | [2] | [3] | [4]

wild type PDGFRβ with C-terminal flag-tag expressed in PDGFR-deficient MEFs (from UniProt P09619 33-1106) (receptor)
binds: [5] | [6] | [7]
